Test results taken from patent US20230203203A1 (YISSUM RESEARCH DEVELOPMENT COMPANY OF THE HEBREW …, published 2023).
These are yes or no findings as the source states them, for the method shown. Some results given as binding are weak or reduced against the parent protein; the word gives no strength.

Columns and labels:
human CD177 [1] = biological target: T1, human CD177 (human, UniProt Q8N6Q3 22-408); assay: flow cytometry on WBCs of a healthy volunteer, CD66b+ SSC-high gate, anti-M13-PE
T1 construct: whole, on cells; On circulating human neutrophils of donors and patients; also called CD177 (on human neutrophils)
T1 sequence (looked up): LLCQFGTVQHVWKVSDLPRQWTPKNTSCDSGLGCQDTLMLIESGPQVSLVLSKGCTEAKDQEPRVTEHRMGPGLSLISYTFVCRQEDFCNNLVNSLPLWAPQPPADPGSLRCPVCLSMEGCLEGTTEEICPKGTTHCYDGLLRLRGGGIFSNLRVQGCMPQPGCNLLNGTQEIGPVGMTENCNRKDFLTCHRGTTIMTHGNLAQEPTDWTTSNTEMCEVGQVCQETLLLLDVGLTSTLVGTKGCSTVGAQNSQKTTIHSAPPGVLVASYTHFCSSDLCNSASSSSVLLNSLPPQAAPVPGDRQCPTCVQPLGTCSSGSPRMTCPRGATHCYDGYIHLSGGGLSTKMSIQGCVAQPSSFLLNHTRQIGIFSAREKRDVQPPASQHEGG

human CD177 [2] = biological target: T1, human CD177; assay: flow cytometry on WBCs of a lung cancer patient, CD66b+ SSC-high gate, anti-M13-PE
human CD177 [3] = biological target: T1, human CD177; assay: as the filing tells it; experiment described with the KFP-tetramer pull-down and donors' CD177 levels

Measured: binding

B1: phage presenting peptide SLE (other)
chain: SLESSPMAQLPQ
notes: not shown: phage coat protein pVIII flanking the inserted peptide
binds: all assays above

B2: phage presenting peptide 27 (LAT) (other)
chain: LATTHMVFSPDH
notes: as for B1
binds: all assays above

B3: phage presenting peptide PEL (other)
chain: PELDSKPYFPPL
notes: as for B1
binds: all assays above

B4: phage presenting peptide 1.1 (KFP) (other)
chain: KFPDLDSRRLPHMSL
notes: detected with PE-conjugated anti-M13 antibody; not shown: phage coat protein pVIII flanking the inserted peptide
binds: all assays above

B5: phage presenting peptide SEL (other)
chain: SELRSTPLLVPS
notes: as for B1
binds: all assays above

B6: phage presenting peptide ELV (other)
chain: ELVTASMPRPNN
notes: as for B1
binds: all assays above
